Reference: the supplement of paper PMC12067093, “Discovery and optimisation of a covalent ligand for TRIM25 and its application to targeted protein ubiquitination” (Chemical Science, 2025)
This is one part of the list.

Protein sequences, listed by entry. Tags and fused reporters are not part of them. Lines headed by an entry give the natural chain unless they say otherwise; changes in a name come on top.
UniProt Q562F6: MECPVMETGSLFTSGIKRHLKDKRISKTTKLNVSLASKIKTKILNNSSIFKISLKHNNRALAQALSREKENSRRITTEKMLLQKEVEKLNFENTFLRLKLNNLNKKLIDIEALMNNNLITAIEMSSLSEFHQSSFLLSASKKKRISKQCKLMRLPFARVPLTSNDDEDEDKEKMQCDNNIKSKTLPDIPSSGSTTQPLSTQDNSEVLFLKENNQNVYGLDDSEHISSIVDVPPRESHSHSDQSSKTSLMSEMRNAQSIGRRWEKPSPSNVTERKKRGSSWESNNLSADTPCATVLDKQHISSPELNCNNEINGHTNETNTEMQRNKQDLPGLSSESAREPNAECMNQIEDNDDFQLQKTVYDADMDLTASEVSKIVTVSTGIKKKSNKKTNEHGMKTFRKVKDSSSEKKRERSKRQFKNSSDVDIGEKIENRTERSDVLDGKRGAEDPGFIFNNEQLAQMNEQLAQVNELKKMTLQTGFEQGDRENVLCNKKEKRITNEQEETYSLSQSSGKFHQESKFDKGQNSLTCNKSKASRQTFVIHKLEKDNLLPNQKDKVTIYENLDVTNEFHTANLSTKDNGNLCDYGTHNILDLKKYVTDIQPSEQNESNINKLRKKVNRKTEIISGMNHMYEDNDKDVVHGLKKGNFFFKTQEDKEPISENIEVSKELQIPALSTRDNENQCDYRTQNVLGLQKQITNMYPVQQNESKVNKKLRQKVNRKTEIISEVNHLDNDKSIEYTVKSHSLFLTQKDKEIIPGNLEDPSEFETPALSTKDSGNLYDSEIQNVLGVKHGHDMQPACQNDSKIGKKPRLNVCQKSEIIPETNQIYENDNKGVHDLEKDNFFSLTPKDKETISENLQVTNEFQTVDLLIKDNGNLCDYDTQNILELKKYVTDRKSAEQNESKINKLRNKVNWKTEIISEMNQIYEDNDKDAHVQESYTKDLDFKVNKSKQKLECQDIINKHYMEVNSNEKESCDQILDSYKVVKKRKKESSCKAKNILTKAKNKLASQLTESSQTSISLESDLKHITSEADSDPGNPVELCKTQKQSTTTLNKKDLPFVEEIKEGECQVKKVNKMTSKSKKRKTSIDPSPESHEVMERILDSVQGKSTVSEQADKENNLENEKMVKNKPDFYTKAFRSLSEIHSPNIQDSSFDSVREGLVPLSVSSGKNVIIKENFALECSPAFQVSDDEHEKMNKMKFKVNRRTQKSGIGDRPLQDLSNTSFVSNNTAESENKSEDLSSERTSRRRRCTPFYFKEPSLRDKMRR
UniProt Q15758: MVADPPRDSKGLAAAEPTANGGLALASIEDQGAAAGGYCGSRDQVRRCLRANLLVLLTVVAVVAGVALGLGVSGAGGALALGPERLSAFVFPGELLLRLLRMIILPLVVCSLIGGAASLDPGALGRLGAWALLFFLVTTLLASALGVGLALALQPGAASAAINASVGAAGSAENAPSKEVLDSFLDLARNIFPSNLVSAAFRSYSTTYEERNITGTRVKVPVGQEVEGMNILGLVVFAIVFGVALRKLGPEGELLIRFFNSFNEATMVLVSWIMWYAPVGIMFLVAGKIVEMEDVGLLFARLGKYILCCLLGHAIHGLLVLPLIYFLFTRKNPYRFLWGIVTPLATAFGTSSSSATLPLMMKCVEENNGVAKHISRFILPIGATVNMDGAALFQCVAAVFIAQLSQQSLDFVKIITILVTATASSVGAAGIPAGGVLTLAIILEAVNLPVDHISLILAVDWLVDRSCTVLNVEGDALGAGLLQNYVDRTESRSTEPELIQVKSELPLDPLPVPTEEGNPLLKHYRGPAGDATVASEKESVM
UniProt P43007: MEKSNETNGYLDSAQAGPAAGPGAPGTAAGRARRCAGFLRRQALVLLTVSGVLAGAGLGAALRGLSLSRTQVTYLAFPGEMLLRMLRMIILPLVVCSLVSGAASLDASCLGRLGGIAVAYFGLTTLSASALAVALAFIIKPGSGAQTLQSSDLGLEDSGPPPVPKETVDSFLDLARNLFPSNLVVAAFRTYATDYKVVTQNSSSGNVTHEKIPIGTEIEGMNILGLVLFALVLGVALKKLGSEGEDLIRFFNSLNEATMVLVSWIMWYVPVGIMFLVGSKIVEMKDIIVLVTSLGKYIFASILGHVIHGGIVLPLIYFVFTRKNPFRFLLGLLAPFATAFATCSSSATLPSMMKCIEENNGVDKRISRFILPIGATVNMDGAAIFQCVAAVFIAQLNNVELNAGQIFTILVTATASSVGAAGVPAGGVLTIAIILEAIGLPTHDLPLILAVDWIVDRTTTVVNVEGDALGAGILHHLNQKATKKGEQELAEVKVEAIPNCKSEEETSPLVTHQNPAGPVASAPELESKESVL
UniProt Q96BR1: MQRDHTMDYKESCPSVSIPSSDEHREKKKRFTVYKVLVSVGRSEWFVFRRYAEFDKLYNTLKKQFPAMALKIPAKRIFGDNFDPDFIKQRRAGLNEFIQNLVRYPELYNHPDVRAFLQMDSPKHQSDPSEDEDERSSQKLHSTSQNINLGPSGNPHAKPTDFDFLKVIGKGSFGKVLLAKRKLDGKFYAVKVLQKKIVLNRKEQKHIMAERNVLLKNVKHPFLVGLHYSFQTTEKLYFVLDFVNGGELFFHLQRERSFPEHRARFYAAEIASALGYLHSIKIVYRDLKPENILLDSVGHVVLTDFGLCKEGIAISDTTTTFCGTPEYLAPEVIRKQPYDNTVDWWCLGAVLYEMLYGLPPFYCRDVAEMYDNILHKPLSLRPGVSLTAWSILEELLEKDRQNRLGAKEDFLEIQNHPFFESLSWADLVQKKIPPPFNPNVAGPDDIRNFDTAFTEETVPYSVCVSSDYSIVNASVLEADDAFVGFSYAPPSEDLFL
UniProt P48595: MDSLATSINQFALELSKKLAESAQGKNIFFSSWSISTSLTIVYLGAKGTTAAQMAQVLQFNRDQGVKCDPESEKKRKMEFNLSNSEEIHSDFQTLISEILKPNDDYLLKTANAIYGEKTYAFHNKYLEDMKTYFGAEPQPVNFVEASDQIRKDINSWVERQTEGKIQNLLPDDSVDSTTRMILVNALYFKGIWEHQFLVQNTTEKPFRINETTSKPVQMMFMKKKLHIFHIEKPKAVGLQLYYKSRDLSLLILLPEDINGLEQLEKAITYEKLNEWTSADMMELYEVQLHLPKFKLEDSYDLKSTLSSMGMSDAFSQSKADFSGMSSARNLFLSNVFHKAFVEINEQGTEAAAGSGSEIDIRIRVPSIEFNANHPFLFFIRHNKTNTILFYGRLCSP
UniProt Q96FS4: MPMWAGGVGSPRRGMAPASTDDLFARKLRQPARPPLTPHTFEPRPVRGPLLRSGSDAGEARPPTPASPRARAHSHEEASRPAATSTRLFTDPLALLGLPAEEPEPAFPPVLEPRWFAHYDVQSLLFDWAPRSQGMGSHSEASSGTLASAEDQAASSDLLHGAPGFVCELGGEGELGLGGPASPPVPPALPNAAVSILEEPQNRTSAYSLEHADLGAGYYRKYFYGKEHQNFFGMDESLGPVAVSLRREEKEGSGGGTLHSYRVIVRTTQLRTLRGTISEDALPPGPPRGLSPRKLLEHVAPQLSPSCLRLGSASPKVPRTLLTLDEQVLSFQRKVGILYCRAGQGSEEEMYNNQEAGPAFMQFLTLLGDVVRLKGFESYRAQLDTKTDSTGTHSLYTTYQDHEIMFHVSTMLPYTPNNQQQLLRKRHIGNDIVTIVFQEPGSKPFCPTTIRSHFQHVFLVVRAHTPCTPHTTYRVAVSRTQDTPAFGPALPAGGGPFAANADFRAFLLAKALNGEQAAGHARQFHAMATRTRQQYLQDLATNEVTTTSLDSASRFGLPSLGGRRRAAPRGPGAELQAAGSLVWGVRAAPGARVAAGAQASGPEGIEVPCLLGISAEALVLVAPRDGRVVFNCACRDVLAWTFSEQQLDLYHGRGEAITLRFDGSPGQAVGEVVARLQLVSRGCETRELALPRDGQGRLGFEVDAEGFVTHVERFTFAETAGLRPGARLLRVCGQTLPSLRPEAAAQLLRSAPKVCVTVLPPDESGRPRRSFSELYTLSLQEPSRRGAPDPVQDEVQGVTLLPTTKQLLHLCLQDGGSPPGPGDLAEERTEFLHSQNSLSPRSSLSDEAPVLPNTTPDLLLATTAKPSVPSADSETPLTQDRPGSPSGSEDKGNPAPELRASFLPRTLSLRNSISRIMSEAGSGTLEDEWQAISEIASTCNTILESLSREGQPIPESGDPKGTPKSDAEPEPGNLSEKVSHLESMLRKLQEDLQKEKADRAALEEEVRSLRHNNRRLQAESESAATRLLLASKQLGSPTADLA
UniProt Q96CQ1: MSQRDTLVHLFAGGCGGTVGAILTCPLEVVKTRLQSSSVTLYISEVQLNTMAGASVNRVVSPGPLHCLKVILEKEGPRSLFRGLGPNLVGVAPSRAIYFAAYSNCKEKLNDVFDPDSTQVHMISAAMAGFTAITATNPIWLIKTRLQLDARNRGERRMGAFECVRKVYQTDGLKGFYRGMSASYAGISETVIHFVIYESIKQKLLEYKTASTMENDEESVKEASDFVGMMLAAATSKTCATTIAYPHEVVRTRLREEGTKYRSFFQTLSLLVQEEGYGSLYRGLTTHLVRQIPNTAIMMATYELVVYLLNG
UniProt P50452: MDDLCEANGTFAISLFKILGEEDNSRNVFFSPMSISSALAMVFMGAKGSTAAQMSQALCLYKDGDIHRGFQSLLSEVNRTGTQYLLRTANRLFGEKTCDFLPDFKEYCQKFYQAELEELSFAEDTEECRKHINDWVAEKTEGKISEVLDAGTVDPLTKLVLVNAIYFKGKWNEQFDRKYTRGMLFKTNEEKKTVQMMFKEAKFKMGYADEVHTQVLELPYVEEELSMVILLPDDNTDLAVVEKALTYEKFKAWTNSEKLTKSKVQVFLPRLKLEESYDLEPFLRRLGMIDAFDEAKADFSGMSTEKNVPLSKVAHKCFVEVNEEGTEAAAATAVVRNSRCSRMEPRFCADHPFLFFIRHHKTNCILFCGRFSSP
UniProt Q15637: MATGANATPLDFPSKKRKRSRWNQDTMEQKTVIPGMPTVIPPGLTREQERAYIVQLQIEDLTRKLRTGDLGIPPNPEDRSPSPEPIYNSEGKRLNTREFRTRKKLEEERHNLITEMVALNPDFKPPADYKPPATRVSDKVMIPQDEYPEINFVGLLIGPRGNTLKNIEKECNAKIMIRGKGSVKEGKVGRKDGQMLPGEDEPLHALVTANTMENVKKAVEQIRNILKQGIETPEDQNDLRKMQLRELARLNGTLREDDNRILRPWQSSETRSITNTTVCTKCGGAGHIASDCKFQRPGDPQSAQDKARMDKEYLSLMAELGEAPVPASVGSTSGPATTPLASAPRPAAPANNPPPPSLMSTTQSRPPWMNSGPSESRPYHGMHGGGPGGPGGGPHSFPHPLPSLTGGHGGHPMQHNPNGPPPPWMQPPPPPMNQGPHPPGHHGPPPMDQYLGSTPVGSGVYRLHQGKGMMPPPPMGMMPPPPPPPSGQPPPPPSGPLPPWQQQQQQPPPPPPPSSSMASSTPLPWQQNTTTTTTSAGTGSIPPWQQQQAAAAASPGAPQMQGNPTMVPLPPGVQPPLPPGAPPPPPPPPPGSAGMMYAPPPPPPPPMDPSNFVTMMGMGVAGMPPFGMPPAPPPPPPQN
UniProt Q12874: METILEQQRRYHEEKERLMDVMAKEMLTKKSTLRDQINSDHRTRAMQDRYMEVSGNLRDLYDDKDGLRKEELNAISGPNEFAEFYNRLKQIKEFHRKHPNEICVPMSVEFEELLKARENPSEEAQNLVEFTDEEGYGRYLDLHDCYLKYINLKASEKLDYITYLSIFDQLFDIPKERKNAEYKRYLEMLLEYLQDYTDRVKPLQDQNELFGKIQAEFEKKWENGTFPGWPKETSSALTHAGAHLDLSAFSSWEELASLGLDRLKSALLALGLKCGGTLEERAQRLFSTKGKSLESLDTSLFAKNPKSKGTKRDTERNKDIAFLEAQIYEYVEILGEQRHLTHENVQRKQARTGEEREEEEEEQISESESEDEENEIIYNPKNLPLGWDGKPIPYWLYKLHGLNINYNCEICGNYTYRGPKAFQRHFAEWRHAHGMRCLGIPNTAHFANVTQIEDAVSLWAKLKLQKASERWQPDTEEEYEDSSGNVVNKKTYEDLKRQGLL
UniProt Q96ES7: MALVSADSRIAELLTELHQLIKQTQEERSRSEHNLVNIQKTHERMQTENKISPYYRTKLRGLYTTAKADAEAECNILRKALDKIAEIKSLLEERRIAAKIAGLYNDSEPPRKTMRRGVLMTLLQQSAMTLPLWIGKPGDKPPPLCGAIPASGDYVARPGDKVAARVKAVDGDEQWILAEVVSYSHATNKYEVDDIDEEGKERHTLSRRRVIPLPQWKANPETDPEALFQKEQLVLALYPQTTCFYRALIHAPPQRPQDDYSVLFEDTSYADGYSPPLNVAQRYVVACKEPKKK

Compound: Cc1cc(ccc1-c1ccccc1)C(=O)N1CCCN(CC1)C(=O)CCl [compound 10]
Assay: probe-labelled cysteine peptide fold change vs DMSO (competition) (log2 fold change); higher = less target engagement (more negative = stronger competition)
Settings: THP-1, incubation time: 4 h
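Note: competitive profiling in live THP-1 cells: cysteine peptides tagged with an iodoacetamide desthiobiotin (IA-DTB) probe, intensity after compound treatment relative to DMSO-treated cells.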

| Target | probe-labelled cysteine peptide fold change (10 µM) | probe-labelled cysteine peptide fold change (50 µM) |
| --- | --- | --- |
| SGO2_Q562F6_798_HGHDMQPACQNDSK (UniProt Q562F6) | -0.0428 | -0.0703 |
| SF3B1_O75533_965_TCQEEK (UniProt O75533) | 0.131 | 0.267 |
| SLC1A5_Q15758_467_SCTVLNVEGDALGAGLLQNYVDR (UniProt Q15758) | -0.0568 | 0.27 |
| SIVA1_O15304_62_LLFLGAQAYLDHVWDEGCAVVHLPESPKPGPTGAPR (UniProt O15304) | 0.299 | 0.218 |
| SLC1A4_P43007_500_VEAIPNCK (UniProt P43007) | -0.218 | -0.188 |
| SGK3_Q96BR1_13_ESCPSVSIPSSDEHR (UniProt Q96BR1) | -0.212 | -0.17 |
| SERPINB10_P48595_68_CDPESEK (UniProt P48595) | -0.181 | -0.213 |
| SIPA1_Q96FS4_307_LLEHVAPQLSPSCLR (UniProt Q96FS4) | -0.36 | -0.251 |
| SETDB1_Q15047_582_LFYLPHVCSYTCLSR (UniProt Q15047) | -0.0872 | -0.112 |
| SLC25A36_Q96CQ1_239_TCATTIAYPHEVVR (UniProt Q96CQ1) | -0.122 | 0.332 |
| SERPINB8_P50452_128_FYQAELEELSFAEDTEECRK (UniProt P50452) | -0.0682 | 0.182 |
| SF1_Q15637_279_SITNTTVCTK (UniProt Q15637) | 0.19 | 0.118 |
| SF3A3_Q12874_437_CLGIPNTAHFANVTQIEDAVSLWAK (UniProt Q12874) | 0.0901 | 0.15 |
| SGF29_Q96ES7_74_ADAEAECNILR (UniProt Q96ES7) | -0.0208 | 0.12 |

A different layout for some results above.
Target | probe-labelled cysteine peptide fold change (10 µM) | probe-labelled cysteine peptide fold change (50 µM)
SIVA1_O15304_62_LLFLGAQAYLDHVWDEGCAVVHLPESPKPGPTGAPR (UniProt O15304) | 0.299 | 0.218
SLC1A4_P43007_500_VEAIPNCK (UniProt P43007) | -0.218 | -0.188
